Assay results reported in article doi:10.1101/2019.12.21.885863.
No constants are given. Whether binding was seen depends on the method and setting. For part of these data: In cells and extracts the contact can be indirect. Some entries that bind do so weakly or less than the wild type. Tags and fused reporters may be left off the sequences shown. Blank lines part the entries; values can stand above or below the binder they belong to.

Tests used:
[1] = molecular target: T1, GAL4BD-SMXL5 fusion protein (Arabidopsis thaliana) (UniProt Q9LU73); assay: two-hybrid
T1 sequence: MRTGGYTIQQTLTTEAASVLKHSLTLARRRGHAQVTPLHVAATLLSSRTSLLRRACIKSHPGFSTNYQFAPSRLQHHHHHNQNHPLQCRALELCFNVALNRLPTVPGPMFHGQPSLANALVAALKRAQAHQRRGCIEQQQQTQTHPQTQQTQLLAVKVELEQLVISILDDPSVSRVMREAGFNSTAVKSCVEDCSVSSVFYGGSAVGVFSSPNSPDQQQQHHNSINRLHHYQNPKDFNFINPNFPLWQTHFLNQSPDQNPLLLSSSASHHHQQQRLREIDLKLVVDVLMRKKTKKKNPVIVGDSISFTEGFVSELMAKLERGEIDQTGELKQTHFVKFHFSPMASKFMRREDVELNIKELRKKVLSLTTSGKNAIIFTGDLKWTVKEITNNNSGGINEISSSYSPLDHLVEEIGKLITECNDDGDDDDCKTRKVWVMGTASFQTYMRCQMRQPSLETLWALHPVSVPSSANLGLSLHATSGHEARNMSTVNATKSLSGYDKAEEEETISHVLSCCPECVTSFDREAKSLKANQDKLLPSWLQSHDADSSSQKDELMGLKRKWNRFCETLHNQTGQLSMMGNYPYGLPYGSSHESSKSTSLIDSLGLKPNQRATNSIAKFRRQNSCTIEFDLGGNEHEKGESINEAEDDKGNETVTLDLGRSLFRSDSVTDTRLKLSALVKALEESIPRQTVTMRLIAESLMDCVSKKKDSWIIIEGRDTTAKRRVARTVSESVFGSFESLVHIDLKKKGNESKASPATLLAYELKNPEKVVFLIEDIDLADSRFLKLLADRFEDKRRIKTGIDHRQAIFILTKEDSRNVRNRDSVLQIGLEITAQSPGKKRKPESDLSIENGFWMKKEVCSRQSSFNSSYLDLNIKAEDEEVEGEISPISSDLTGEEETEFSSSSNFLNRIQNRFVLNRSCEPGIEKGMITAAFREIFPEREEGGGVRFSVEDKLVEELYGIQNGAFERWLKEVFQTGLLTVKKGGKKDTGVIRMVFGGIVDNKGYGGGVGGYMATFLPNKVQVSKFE

[2] = molecular target: T2, SMXL5-3xHA (Arabidopsis thaliana) (UniProt Q9LU73); assay: co-IP
T2 sequence: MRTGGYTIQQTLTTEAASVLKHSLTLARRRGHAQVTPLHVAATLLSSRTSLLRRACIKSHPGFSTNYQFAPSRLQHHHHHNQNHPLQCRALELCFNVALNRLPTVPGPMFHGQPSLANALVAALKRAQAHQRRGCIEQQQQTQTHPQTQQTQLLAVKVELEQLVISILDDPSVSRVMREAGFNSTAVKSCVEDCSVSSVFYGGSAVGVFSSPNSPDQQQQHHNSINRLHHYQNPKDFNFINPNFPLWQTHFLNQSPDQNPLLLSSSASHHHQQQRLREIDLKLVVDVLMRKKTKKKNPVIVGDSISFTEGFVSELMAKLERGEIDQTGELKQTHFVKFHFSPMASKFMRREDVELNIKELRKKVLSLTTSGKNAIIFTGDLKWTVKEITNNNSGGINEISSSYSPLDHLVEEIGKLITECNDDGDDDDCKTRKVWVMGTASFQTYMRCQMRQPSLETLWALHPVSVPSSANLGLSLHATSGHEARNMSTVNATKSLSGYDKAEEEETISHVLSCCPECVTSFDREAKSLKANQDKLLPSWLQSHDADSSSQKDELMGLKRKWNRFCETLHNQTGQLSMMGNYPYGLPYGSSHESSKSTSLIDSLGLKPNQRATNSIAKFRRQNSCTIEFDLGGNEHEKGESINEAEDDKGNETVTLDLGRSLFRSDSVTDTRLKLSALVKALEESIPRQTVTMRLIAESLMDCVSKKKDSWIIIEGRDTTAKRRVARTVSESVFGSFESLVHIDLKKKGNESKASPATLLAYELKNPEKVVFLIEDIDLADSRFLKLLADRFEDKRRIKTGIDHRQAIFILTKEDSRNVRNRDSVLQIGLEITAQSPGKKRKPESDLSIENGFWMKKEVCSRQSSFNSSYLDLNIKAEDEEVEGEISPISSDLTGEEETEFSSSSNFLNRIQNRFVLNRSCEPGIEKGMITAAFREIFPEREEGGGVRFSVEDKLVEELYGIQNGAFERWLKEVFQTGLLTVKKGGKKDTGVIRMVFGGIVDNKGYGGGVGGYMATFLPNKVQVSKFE

[3] = molecular target: T3, SMXL5-mCherry (Arabidopsis thaliana) (UniProt Q9LU73); assay: FRET or BRET
T3 sequence: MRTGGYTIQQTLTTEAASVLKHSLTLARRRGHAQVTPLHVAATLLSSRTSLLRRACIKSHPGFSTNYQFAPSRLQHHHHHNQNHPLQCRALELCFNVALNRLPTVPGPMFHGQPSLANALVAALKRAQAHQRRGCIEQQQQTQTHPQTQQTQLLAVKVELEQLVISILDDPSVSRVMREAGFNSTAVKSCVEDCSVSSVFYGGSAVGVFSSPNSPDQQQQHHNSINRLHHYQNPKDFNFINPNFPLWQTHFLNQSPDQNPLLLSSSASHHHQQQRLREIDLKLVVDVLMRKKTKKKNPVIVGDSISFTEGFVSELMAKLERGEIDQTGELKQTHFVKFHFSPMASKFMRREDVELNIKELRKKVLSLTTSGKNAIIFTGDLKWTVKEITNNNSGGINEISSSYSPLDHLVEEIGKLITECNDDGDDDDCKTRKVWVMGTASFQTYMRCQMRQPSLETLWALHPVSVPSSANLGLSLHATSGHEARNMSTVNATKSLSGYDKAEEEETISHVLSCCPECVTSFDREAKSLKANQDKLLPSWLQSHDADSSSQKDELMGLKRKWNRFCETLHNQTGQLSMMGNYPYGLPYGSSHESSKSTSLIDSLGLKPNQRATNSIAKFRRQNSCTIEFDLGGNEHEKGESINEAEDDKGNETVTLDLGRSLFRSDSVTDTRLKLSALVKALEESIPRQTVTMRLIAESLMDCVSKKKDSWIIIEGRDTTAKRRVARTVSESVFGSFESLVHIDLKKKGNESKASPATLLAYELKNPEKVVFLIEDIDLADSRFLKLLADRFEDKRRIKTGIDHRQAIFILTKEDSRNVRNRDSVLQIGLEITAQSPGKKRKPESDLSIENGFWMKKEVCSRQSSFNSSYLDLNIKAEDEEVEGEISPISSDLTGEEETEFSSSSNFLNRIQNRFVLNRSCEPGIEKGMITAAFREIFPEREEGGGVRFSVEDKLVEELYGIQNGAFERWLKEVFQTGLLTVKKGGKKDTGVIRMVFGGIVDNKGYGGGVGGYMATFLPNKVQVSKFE

binding [1]: binds
B1: GAL4AD-OBE3 fusion protein (protein, UniProt Q94B71 1-733)
chain: MIGEKDLAGDGECSRTKTSKPRFSNLNNQTHQDDKTGQYHQKGVDFLNVRSNNLDGGFSSKSSPRSGNELTLSYLCENSGKLAESLGQKGKEVVTFSENSSYDDKWVERDFFNLREMNPNSSKRKAHEEEEEAEEEEDKKSNKIETLNLSLALPDVSLSLTASNAVKRPRVVTSERTTTSFSNDFTATAPSMSYSYSHPFSHNISCSMTRNSTDFDCSVGKDDHIWCAGEGTNGSVHSRFRPIGDGGVALANNPVSGKPSSSADYSFFPSELPARPGNEVTISGDSRKKVANLEDNDAVRSERVLYDIVSKSISSVALIIQGMADETLESAKEYLRNLIDSPEKKEKLVNLQNQIDKRSDLSKETLSKCVKDQLDILVAVRTGLKYFLSGKIRIPMNELVEIFLFLRCRNVNCKSLLPVDDCECKICSNNKGFCSSCMCPVCLRFDSASNTCSWVGCDVCSHWCHAACGIQKNLIKPGHSLKGQRGTTEMMFHCIGCAHKSEMFGFVKDVFVCCAKNWGLETLIKELDCVRKVFRGSDDAKGKALHLKANEMVKKLESKQISPLDASNFIIQFFNYAESIPEIPDPPRELTVAAETSYRKDEASVTPSTSKDQKKKSFALTDAMMNSFDSLESMVRIKEAETRMFQKKADEARIEAESFKRMIEMKTEKMEEEYTEKLARLCLQETEERRRNKLEELKKLENSHCDYRNMKLRMEAEIAGLLKRMEVTRQQLV

B2: 6xMyc-OBE3 (protein, UniProt Q94B71 1-733)
chain: MIGEKDLAGDGECSRTKTSKPRFSNLNNQTHQDDKTGQYHQKGVDFLNVRSNNLDGGFSSKSSPRSGNELTLSYLCENSGKLAESLGQKGKEVVTFSENSSYDDKWVERDFFNLREMNPNSSKRKAHEEEEEAEEEEDKKSNKIETLNLSLALPDVSLSLTASNAVKRPRVVTSERTTTSFSNDFTATAPSMSYSYSHPFSHNISCSMTRNSTDFDCSVGKDDHIWCAGEGTNGSVHSRFRPIGDGGVALANNPVSGKPSSSADYSFFPSELPARPGNEVTISGDSRKKVANLEDNDAVRSERVLYDIVSKSISSVALIIQGMADETLESAKEYLRNLIDSPEKKEKLVNLQNQIDKRSDLSKETLSKCVKDQLDILVAVRTGLKYFLSGKIRIPMNELVEIFLFLRCRNVNCKSLLPVDDCECKICSNNKGFCSSCMCPVCLRFDSASNTCSWVGCDVCSHWCHAACGIQKNLIKPGHSLKGQRGTTEMMFHCIGCAHKSEMFGFVKDVFVCCAKNWGLETLIKELDCVRKVFRGSDDAKGKALHLKANEMVKKLESKQISPLDASNFIIQFFNYAESIPEIPDPPRELTVAAETSYRKDEASVTPSTSKDQKKKSFALTDAMMNSFDSLESMVRIKEAETRMFQKKADEARIEAESFKRMIEMKTEKMEEEYTEKLARLCLQETEERRRNKLEELKKLENSHCDYRNMKLRMEAEIAGLLKRMEVTRQQLV
binding [2]: binds

binding [3]: binds
B3: OBE3-mGFP (protein, UniProt Q94B71 1-733)
chain: MIGEKDLAGDGECSRTKTSKPRFSNLNNQTHQDDKTGQYHQKGVDFLNVRSNNLDGGFSSKSSPRSGNELTLSYLCENSGKLAESLGQKGKEVVTFSENSSYDDKWVERDFFNLREMNPNSSKRKAHEEEEEAEEEEDKKSNKIETLNLSLALPDVSLSLTASNAVKRPRVVTSERTTTSFSNDFTATAPSMSYSYSHPFSHNISCSMTRNSTDFDCSVGKDDHIWCAGEGTNGSVHSRFRPIGDGGVALANNPVSGKPSSSADYSFFPSELPARPGNEVTISGDSRKKVANLEDNDAVRSERVLYDIVSKSISSVALIIQGMADETLESAKEYLRNLIDSPEKKEKLVNLQNQIDKRSDLSKETLSKCVKDQLDILVAVRTGLKYFLSGKIRIPMNELVEIFLFLRCRNVNCKSLLPVDDCECKICSNNKGFCSSCMCPVCLRFDSASNTCSWVGCDVCSHWCHAACGIQKNLIKPGHSLKGQRGTTEMMFHCIGCAHKSEMFGFVKDVFVCCAKNWGLETLIKELDCVRKVFRGSDDAKGKALHLKANEMVKKLESKQISPLDASNFIIQFFNYAESIPEIPDPPRELTVAAETSYRKDEASVTPSTSKDQKKKSFALTDAMMNSFDSLESMVRIKEAETRMFQKKADEARIEAESFKRMIEMKTEKMEEEYTEKLARLCLQETEERRRNKLEELKKLENSHCDYRNMKLRMEAEIAGLLKRMEVTRQQLV
